Laboratory results from patent US20240415839A1, “Identification and Treatment of Cancers Associated with RASGRF1 Gene Fusions” (YALE UNIVERSITY, priority 2021, published 2024).
For at least one compound, name, drawing or mass did not settle the structure.

Legend:
[1] = test system: Ba/F3 cells expressing OCLN-RASGRF1; test: Cell viability (Cell Titer-Glo), Ba/F3 cells expressing OCLN-RASGRF1; format: cell-based; conditions: 4 days
Method: Ba F3 Transformation Assays. Ba/F3 cells were maintained in RPMI 1640 (Gibco) with heat-inactivated 10% fetal bovine serum (Gibco) and penicillin (100 units/mL)/streptomycin (100 μg/mL; Gibco) and 1 ng/mL interleukin-3 (IL-3; Gibco). cDNAs (GFP or OCLN-RASGRF1) in pLX307 were introduced into Ba/F3 cells via lentiviral transduction with 8 μg/mL polybrene and centrifugation at 2250 rpm at 37 degrees C. for 30 minutes. 24 hours later, transduced cells were selected with 1 μg/mL puromycin for at least 5 days.
(§1) Cell Viability Assays and RASGRF1 knockdown. Ba/F3 cells or PaCaDD137 cells were seeded in 96-well microtiter plates. Drug or drug vehicle was added on the same day (for Ba/F3 cells) or 24 hours after seeding (for PaCaDD137 cells). Following 4-5 days of drug exposure, cell viability was determined using the Cell Titer-Glo luminescent assay (Promega) according to the manufacturer's instructions. Luminescence was measured with a Spectramax M3 plate reader (Molecular Devices). Data analysis was performed using GraphPad Prism software.

[2] = test system: PaCaDD137 cells; test: Cell viability (Cell Titer-Glo), PaCaDD137 cells; format: cell-based
Method: as §1, with “Following 4-5 days of drug exposure, cell viability was determined using the Cell Titer-Glo luminescent assay (Promega) according to the manufacturer's instructions.” left out

[3] = test system: advanced lung adenocarcinoma with TMEM87A-RASGRF1 fusion; conditions: never-smoker with advanced lung adenocarcinoma, case report (Cooper et al. 2020); cited from earlier work
[4] = test system: wild-type Ba/F3 cells; test: Cell viability (Cell Titer-Glo), wild-type Ba/F3 cells; format: cell-based; conditions: wild-type Ba/F3 cells cultured with 1 ng/mL IL-3; 4 days
[5] = test system: KRAS-mutant PDAC cell line SU8686; test: Cell viability (Cell Titer-Glo), SU8686 cells; format: cell-based; conditions: SU8686 cells (lack an RASGRF1 fusion), 6 days
[6] = test system: Ba/F3 cells expressing OCLN-RASGRF1; test: Western immunoblotting for PARP cleavage (apoptosis), Ba/F3 cells expressing OCLN-RASGRF1; format: cell-based; conditions: 24 hours after serum starvation for 4 hours
[7] = test system: PaCaDD137 cells; test: Western immunoblotting (apoptosis), PaCaDD137 cells; format: cell-based; conditions: 48 hours
[8] = test system: PaCaDD137 xenografts; test: PaCaDD137 xenograft drug dosing assay; format: in vivo; conditions: 1 mg/kg/day, intraperitoneal injection, daily, PaCaDD137 xenografts in mice

| SMILES | sensitivity (cell viability) [1] | sensitivity (cell viability) [2] | therapeutic response in patient [3] | highly sensitive (cell viability) [4] | sensitivity (cell viability) [5] | apoptosis, induction of PARP cleavage [6] | apoptosis [7] | tumor growth compared to vehicle [8] | tumor growth compared to vehicle ([8]; listed as Trametinib) |
| --- | --- | --- | --- | --- | --- | --- | --- | --- | --- |
| CCN(CC)CCNC(=O)c1c(C)[nH]c(/C=C2\C(=O)Nc3ccc(F)cc32)c1C [sunitinib] | No sensitivity | No sensitivity | exceptional therapeutic response |  |  |  |  |  |  |
| CC(=O)Nc1cccc(-n2c(=O)n(C3CC3)c(=O)c3c(Nc4ccc(I)cc4F)n(C)c(=O)c(C)c32)c1 [trametinib] | highly sensitive | highly sensitive |  | not | limited sensitivity | induced apoptosis | induced apoptosis | marked tumor growth inhibition | impairs growth |
